# Test results from the supplement of paper PMC5770031.
# This is one part of the list. Repeats in this data set agree poorly, so a single value says little.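 ATM8/balancer (normal ATM) heterozygous flies were crossed on treated food; parents laid eggs 5–6 days, offspring developed ~12 days, so parents and larvae ingested compound. Readout: fraction of emerged adults homozygous for ATM8 versus 2% DMSO controls. Compounds were neutral at 10–20% homozygotes, harmful below 10%, helpful above 20%.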 Peptide text beside a SMILES is read from it.
# Test system: Drosophila melanogaster ATM8 (temperature-sensitive ATM allele)
# Experiment: fraction of eclosed F1 progeny that are homozygous ATM8 (rescue of developmental lethality); higher = more rescue of ATM8 developmental lethality; extreme values may be limits of the assay
# Conditions: compound concentration applied to food 0.2 mM; 21 °C
row,Structure (SMILES),fraction of eclosed F1 progeny that are homozygous ATM8
1,O=C(O)CF,0.25
2,COc1ccc2c(c1)OC[C@@H](Cc1ccc(OC)c(OC)c1)[C@@H]2O,0.167
3,"CC1(C)C(=O)[C@@H]2O[C@@H]2[C@@]2(C)C1C[C@@H](O)[C@]1(C)C2CC[C@@]2(C)[C@H](c3ccoc3)OC(=O)C3OC321 (stereo partly drawn) [1,2alpha-EPOXYDEACETOXYDIHYDROGEDUNIN]",0.17
4,COc1cccc(C=O)c1OC,0.268
5,COc1ccc2cc3[n+](cc2c1OC)CCc1cc2c(cc1-3)OCO2,0.125
6,O=C(CCCN1CCC2(CC1)C(=O)NCN2c1ccccc1)c1ccc(F)cc1,0.208
7,CC(C)Cn1c(=O)n(C)c(=O)c2nc[nH]c21,0.0727
8,COC(=O)C[C@H]1C(C)(C)C(=O)[C@@H]2CC3C4=CC(=O)O[C@@H](c5ccoc5)[C@]4(C)CC[C@@H]3[C@@]1(C)C2=O (stereo not given in full),0.238
9,CC(C)=CC1C(C(=O)O)C1(C)C (stereo not given),0.25
10,OCC(S)CS (stereo not given),0.0698
11,CN(C)CC(=O)OC[C@@H](O)[C@@H](O)[C@H](O)[C@@H](O)C(=O)O,0.127
12,CC(C)(C)NCC(O)COc1cccc2c1CC(O)C(O)C2 (stereo not given),0.0545
13,Cc1cc(O)cc(O)c1C(=O)O,0
14,O=[N+]([O-])O[C@H]1CO[C@H]2[C@@H]1OC[C@H]2O[N+](=O)[O-],0.0952
15,CC1=C(C(=O)O)N2C(=O)[C@@H](NC(=O)[C@H](N)c3ccccc3)[C@H]2SC1,0.0488
16,CC[C@H](C)C(=O)O[C@H]1C[C@H](O)C=C2C=C[C@H](C)[C@H](CC[C@@H](O)C[C@@H](O)CC(=O)O)[C@H]21,0
17,NCC1(CC(=O)O)CCCCC1,0.0172
18,COc1cc2ccc(=O)oc2c2ccoc12,0.0385
19,O=c1cccc2n1C[C@@H]1CNC[C@H]2C1,0.0889
20,NC(=O)CC[C@H](NC(=O)[C@@H](N)CO)C(=O)O (H-Ser-Gln-OH),0.0976
21,OCC(O)C(O)C(O)CO (stereo not given),0.0811
22,CC[C@@]1(O)C(=O)OCc2c1cc1n(c2=O)Cc2cc3c(CN(C)C)c(O)ccc3nc2-1,0.177
23,Nc1nc(=O)[nH]cc1F,0.323
24,O=C(O)/C=C(\CC(=O)O)C(=O)O,0.179
25,Cc1c(C)c2c(c(C)c1O)CCC(C)(CCCC(C)CCCC(C)CCCC(C)C)O2 (stereo not drawn) [alpha-TOCHOPHEROL [4 mM]],0.0857

row,Structure (SMILES),fraction of eclosed F1 progeny that are homozygous ATM8
1,NC[C@H]1O[C@H](O[C@H]2[C@H](O)[C@@H](O[C@H]3O[C@H](CO)[C@@H](O)[C@H](N)[C@H]3O)[C@H](N)C[C@@H]2N)[C@H](N)[C@@H](O)[C@@H]1O,0.227
2,CCCC(=O)Nc1ccc(OCC(O)CNC(C)C)c(C(C)=O)c1 (stereo not given),0.182
3,C[C@@H]1O[C@@H](OC[C@H]2O[C@@H](Oc3c(-c4ccc(O)c(O)c4)oc4cc(O)cc(O)c4c3=O)[C@H](O)[C@@H](O)[C@@H]2O)[C@H](O)[C@H](O)[C@H]1O,0.0588
4,CO/N=C(\C(=O)N[C@@H]1C(=O)N2C(C(=O)O)=C(CSC(=O)c3ccco3)CS[C@H]12)c1csc(N)n1,0.667
5,O=C(Nc1ccccc1)OCC(CN1CCCCC1)OC(=O)Nc1ccccc1 (stereo not given),0.0667
6,N=C(N)c1ccc(N=NNc2ccc(C(=N)N)cc2)cc1,0.0303
7,COc1c(O)cc(O)cc1O,0.106
8,N[C@@H](CC(=O)N1CCn2c(nnc2C(F)(F)F)C1)Cc1cc(F)c(F)cc1F,0.0357
9,COc1cc2c(cc1OC)Cc1cc(OC)c(OC)cc1Cc1cc(OC)c(OC)cc1C2,0.351
10,CCOC(=O)c1cncn1[C@H](C)c1ccccc1,0.08
11,C[C@@H]1O[C@@H](O[C@H]2[C@H](Oc3cc(O)c4c(c3)O[C@H](c3ccc(O)cc3)CC4=O)O[C@H](CO)[C@@H](O)[C@@H]2O)[C@H](O)[C@H](O)[C@H]1O,0.246
12,C=COCC(F)(F)F,0.257
13,CC(=O)OCC(=O)[C@@]12OC3(CCCC3)O[C@@H]1C[C@H]1[C@@H]3CCC4=CC(=O)C=C[C@]4(C)[C@@]3(F)[C@@H](O)C[C@@]12C,0.192
14,O=C(O)Cc1cc(I)c(Oc2ccc(O)c(I)c2)c(I)c1,0.156
15,CC(C)=CCC/C(C)=C\CO,0.2
16,COCCCOc1ccnc(C[S+]([O-])c2nc3ccccc3[nH]2)c1C (stereo not given),0.162
17,COc1cc(C(C)=O)cc(OC)c1O,0.2
18,CNCC[C@@H](Oc1ccccc1C)c1ccccc1,0.353
19,Cc1ccc(C(=O)C(C)CN2CCCCC2)cc1 (stereo not given),0.0508
20,O=C(CCCCC(=O)Nc1c(I)cc(I)c(C(=O)O)c1I)Nc1c(I)cc(I)c(C(=O)O)c1I,0.106
21,O=C(O)/C=C/C=C/c1ccccc1,0.111
22,CCCc1nc2c(C)cc(-c3nc4ccccc4n3C)cc2n1Cc1ccc(-c2ccccc2C(=O)O)cc1,0.26
23,COCCCOc1cc(C[C@@H](C[C@H](N)[C@@H](O)C[C@H](C(=O)NCC(C)(C)C(N)=O)C(C)C)C(C)C)ccc1OC,0.0411
24,CCCCOC(=O)c1ccc(O)cc1,0.116
25,C#C[C@]1(OC(C)=O)CC[C@H]2[C@@H]3CCC4=CC(=O)CC[C@@H]4[C@H]3CC[C@@]21C,0.0784

# Entries shown so far that have sulfur (four):
row,Structure (SMILES),fraction of eclosed F1 progeny that are homozygous ATM8
10,OCC(S)CS (stereo not given),0.0698
15,CC1=C(C(=O)O)N2C(=O)[C@@H](NC(=O)[C@H](N)c3ccccc3)[C@H]2SC1,0.0488
4,CO/N=C(\C(=O)N[C@@H]1C(=O)N2C(C(=O)O)=C(CSC(=O)c3ccco3)CS[C@H]12)c1csc(N)n1,0.667
16,COCCCOc1ccnc(C[S+]([O-])c2nc3ccccc3[nH]2)c1C (stereo not given),0.162

# Continued.

row,Structure (SMILES),fraction of eclosed F1 progeny that are homozygous ATM8
1,COc1ccc(-c2cc(=O)c3c(O)c(OC)c(OC)c(OC)c3o2)cc1OC,0.208
2,N=C(N)N1CCc2ccccc2C1,0.224
3,CC1=CC(=O)c2ccccc2C1=O,0.136
4,CC(=O)/N=c1/sc(S(N)(=O)=O)nn1C,0.0493
5,O=C(O)c1nn(Cc2ccc(Cl)cc2Cl)c2ccccc12,0.286
6,CC(=O)Oc1ccc(-c2coc3c4c(c(CC=C(C)C)c(OC(C)=O)c3c2=O)OC(C)(C)C=C4)cc1OC(C)=O,0.244
7,C[N+]12CC[C@@]34c5ccccc5N5C(=O)C[C@@H]6OCC=C(C1)[C@H](C[C@@H]32)[C@@H]6[C@H]54 (stereo not given in full),0.109
8,CC(C[N+](C)(C)C)OC(N)=O (stereo not given),0.0952
9,CN(C)CCN(Cc1ccc(Cl)cc1)c1ccccn1,0.241
10,Cc1cn([C@H]2C[C@H](N=[N+]=[N-])[C@@H](CO)O2)c(=O)[nH]c1=O,0.154
11,COc1ccc([C@@H]2Sc3ccccc3N(CCN(C)C)C(=O)[C@@H]2OC(C)=O)cc1,0.185
12,O=C(NC(=O)c1c(F)cccc1F)Nc1ccc(Cl)cc1,0.225
13,Cc1c(NC(C)C)c(=O)n(-c2ccccc2)n1C,0.0625
14,COc1cc2c(c3ccccc13)OC(C)(C)C=C2,0.225
15,COc1cc2c(cc1O)CCN[C@@H]2C,0.393
16,COc1ccc(-c2coc3cc(O)ccc3c2=O)c(O)c1O,0.0435
17,CCCCCC(=O)Cc1cc(O)cc(O)c1C(=O)Oc1cc(CC(=O)CCCCC)c(C(=O)O)c(OC)c1,0.0625
18,COc1c(C)c2c(c(O)c1C/C=C(\C)CCC(=O)OCCN1CCOCC1)C(=O)OC2,0.118
19,CN1C(C(=O)Nc2ccccn2)=C(O)c2ccccc2S1(=O)=O,0.157
20,COc1cc2c(cc1OC)[C@@H]1C(=O)c3ccc4c(c3O[C@@H]1CO2)CC(C(C)C)O4 (stereo not given in full),0.145
21,NCCS,0.278
22,COCCOC(=O)C1=C(C)NC(C)=C(C(=O)OC(C)C)C1c1cccc([N+](=O)[O-])c1 (stereo not given),0.0345
23,CC1(C)[C@@H](O)CC[C@]2(C)[C@H]3C(=O)C=C4[C@@H]5C[C@@](C)(C(=O)O)CC[C@]5(C)CC[C@@]4(C)[C@]3(C)CC[C@@H]12,0.109
24,C[C@]12CCC(=O)C=C1C=C[C@@H]1[C@@H]2CC[C@@]2(C)[C@H]1CC[C@@]21CCC(=O)O1,0.268
25,CCC1(C2=NCCN2)Cc2ccccc2O1 (stereo not given),0.157

row,Structure (SMILES),fraction of eclosed F1 progeny that are homozygous ATM8
1,CC[C@@H](CO)NC(=O)[C@@H]1C=C2c3cccc4[nH]cc(c34)C[C@H]2N(C)C1,0.125
2,COC(=O)c1c(C)c2c(c(C)c1O)OC(=O)c1c(C)c(Cl)c(O)c(Cl)c1O2,0.0588
3,Cc1ccc(C)c(OCCCC(C)(C)C(=O)O)c1,0.116
4,O=C(O)C[C@H](O)C[C@H](O)/C=C/c1c(C2CC2)nc2ccccc2c1-c1ccc(F)cc1,0.158
5,CCCCOC(=O)c1ccccc1C(=O)OCCCC,0.0323
6,O=C(CCCN1CCC(O)(c2ccc(Cl)cc2)CC1)c1ccc(F)cc1,0.325
7,COc1cc2c(cc1OC)[C@@H]1Cc3ccc(OC)c(OC)c3CN1CC2,0.143
8,COc1cc2c(cc1OC)C1C(=O)c3c(cc4c(c3O)C=CC(C)(C)O4)OC1CO2 (stereo not drawn) [beta-TOXICAROL],0.0588
9,NCC(=O)CCC(=O)O,0.353
10,NC(=O)c1ccc[n+]([C@@H]2O[C@H](COP(=O)([O-])OP(=O)(O)OC[C@H]3O[C@@H](n4cnc5c(N)ncnc54)[C@H](O)[C@@H]3O)[C@@H](O)[C@H]2O)c1,0.0556
11,COc1c2ccoc2cc2oc(C)cc(=O)c12,0.132
12,COc1ccc(CN(CCN(C)C)c2ncccn2)cc1,0.0746
13,COc1cc2c(cc1OC)[C@@H]1C(=O)c3ccc4c(c3O[C@@H]1CO2)C=CC(C)(C)O4,0.364
14,S=c1[nH]cnc2nc[nH]c12,0.162
15,C=C(C)[C@@H]1CC[C@]2(C)CC[C@]3(C)[C@H](CC[C@@H]4[C@@]5(C)CC[C@H](O)C(C)(C)[C@@H]5CC[C@]43C)[C@@H]12,0.105
16,CCCCCCCCNC(C)C(O)c1ccc(SC(C)C)cc1 (stereo not given),0.205
17,CC(=O)CC(c1ccc([N+](=O)[O-])cc1)c1c(O)c2ccccc2oc1=O (stereo not given),0.0417
18,C[N+]1(C)CCc2cc3c(cc2[C@H]1[C@@H]1OC(=O)c2c1ccc1c2OCO1)OCO3,0.257
19,C=CCc1cc(OC)c2c(c1OC)OCO2,0.105
20,CC1=CC2C(CC1=O)C(C)=CCC2C(C)C (stereo not given),0.226
21,CCC(C)C(=O)OC1CC2(C)C(c3ccoc3)OC(=O)CC23OC2(C)OC34C(OC(=O)C(C)C)C3(O)C(OC(=O)C5(C)OC5C)C5(C)CC3(O)C(C)(C5CC(=O)OC)C14O2 (stereo not given),0.0571
22,NCCCCN,0.1
23,O=C1OC(=O)[C@H]2[C@@H]1[C@@H]1CC[C@H]2O1,0.214
24,CC(C)NC(=N)NC(=N)Nc1ccc(Cl)cc1,0.429
25,C[C@]12CCC3c4ccc(OS(=O)(=O)O)cc4CCC3C1CC[C@H]2O (stereo not given in full),0
